Results are given in words; binding and its absence hold for the method and conditions named. In cells and extracts the contact can be indirect. Some entries that bind do so weakly or less than the wild type.
Target: T1, TCOF1 (Treacle) (endogenous, U2OS) (human (endogenous in U2OS)) (UniProt Q13428)
T1 sequence: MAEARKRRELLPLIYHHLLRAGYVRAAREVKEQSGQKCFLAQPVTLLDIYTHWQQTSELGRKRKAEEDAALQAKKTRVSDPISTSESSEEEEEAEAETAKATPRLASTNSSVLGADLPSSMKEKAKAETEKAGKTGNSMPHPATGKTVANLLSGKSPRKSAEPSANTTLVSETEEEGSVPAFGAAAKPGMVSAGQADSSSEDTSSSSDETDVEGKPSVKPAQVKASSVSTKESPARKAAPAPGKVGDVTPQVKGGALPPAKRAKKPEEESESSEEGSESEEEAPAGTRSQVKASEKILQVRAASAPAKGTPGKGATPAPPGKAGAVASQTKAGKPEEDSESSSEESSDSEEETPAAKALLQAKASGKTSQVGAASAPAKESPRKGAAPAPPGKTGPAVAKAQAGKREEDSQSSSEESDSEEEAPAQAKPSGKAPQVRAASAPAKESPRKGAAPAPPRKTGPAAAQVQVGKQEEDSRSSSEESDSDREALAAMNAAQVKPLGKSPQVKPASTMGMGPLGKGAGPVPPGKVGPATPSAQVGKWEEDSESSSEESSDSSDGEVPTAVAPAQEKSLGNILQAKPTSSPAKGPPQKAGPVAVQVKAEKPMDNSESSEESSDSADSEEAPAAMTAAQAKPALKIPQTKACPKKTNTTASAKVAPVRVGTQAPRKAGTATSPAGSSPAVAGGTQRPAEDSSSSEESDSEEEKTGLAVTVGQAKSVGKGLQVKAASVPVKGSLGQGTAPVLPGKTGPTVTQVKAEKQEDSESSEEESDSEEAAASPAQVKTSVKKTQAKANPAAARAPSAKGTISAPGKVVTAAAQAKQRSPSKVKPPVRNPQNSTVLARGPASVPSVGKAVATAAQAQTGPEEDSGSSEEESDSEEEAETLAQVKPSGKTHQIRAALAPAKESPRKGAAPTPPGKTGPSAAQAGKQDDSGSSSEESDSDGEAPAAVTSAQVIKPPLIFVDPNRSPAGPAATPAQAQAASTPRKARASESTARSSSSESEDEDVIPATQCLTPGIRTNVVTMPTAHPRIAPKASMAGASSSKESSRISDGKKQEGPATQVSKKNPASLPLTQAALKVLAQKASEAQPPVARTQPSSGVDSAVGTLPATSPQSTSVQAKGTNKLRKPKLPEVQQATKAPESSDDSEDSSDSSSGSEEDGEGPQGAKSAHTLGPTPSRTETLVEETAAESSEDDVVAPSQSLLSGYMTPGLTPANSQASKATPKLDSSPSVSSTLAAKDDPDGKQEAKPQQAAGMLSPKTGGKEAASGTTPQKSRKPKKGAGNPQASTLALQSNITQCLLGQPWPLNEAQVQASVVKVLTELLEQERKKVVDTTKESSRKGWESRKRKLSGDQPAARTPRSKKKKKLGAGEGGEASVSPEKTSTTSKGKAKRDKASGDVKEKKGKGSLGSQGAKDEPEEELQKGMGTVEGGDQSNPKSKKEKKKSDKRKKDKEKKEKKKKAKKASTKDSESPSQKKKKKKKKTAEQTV
Test: proximity ligation; Duolink PLA on formaldehyde-fixed U2OS-derived cells exposed to IR (5 Gy, 1 h post IR); antibodies against V5 tag and Treacle or NBS1 and Treacle; JMJD6 KO, KO+WT and KO+Mut cell lines for NBS1/Treacle

Sequences of proteins named here, by UniProt entry; tags and fusion partners are left off.
UniProt O60934: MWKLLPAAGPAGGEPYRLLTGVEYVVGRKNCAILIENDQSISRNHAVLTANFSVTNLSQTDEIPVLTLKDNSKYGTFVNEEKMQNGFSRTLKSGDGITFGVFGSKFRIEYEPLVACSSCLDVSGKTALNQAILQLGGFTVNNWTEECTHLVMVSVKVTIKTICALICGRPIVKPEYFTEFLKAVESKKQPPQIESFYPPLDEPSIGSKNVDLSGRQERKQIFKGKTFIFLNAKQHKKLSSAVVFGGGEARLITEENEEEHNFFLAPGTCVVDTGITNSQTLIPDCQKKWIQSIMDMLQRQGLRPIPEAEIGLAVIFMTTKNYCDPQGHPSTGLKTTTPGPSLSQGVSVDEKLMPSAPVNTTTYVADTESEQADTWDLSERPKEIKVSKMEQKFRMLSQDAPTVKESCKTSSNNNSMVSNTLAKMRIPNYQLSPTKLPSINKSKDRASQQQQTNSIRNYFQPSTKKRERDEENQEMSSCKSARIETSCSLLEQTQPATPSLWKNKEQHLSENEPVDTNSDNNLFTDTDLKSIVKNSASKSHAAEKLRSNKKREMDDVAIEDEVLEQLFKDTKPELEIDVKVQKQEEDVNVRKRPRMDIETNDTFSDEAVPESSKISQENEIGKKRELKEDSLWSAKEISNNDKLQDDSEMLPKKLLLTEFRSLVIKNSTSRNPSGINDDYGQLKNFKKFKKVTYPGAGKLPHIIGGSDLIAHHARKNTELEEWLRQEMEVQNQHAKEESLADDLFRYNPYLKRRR

- binding: binds
Substance: NBS1 (endogenous, U2OS) (from UniProt O60934 1-754)
